Data set [1] has as its target GST-HuDpd T149A,T165A (mouse) (UniProt Q61701). Description: competition with a labelled probe. As to conditions: 8 nM unlabeled vs 2 nM labeled Nova1 A, 150 mM NaCl, 20 mM Tris (pH not stated), 1.5 mM MgCl2, 0.5 mM DTT, 0.5 ug/ul tRNA, 20 min, room temperature, 5% PAGE in TBE, recombinant protein, residues 3-385, protein details: N-terminal GST (pGEX-2T), label: biotin (unlabeled as competitor), probe letters rebuilt from the primers and the genome, part of a longer molecule.

Protein sequences, listed by entry. Tags and fused reporters are not part of them. Residues count along the entry.
UniProt Q61701, 3-385 T149A/T165A: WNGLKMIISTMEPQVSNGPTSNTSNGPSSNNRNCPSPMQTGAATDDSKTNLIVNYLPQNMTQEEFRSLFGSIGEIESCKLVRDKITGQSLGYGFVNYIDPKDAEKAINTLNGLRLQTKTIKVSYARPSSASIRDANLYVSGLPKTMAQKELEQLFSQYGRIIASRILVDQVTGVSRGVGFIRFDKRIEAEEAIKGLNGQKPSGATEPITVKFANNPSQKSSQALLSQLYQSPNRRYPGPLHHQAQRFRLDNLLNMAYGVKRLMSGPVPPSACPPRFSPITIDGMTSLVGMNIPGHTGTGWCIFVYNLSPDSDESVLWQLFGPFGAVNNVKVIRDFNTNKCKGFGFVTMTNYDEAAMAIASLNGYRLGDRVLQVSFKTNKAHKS

For data set [2] the target is unchanged. Nature of the data set: EMSA. As to conditions: 2 uM protein, 2 nM RNA, 150 mM NaCl, 20 mM Tris (pH not stated), 1.5 mM MgCl2, 0.5 mM DTT, 0.5 ug/ul tRNA, 20 min, room temperature, 5% PAGE in TBE, recombinant protein, residues 3-385, protein details: N-terminal GST (pGEX-2T), label: biotin (unlabeled as competitor), probe letters rebuilt from the primers and the genome, part of a longer molecule. For orientation: A gel shift assay detects complexes by their altered migration in electrophoresis.

For some of these results: Negatives hold for the conditions tested. For some of these results: At least one verdict was read from the data and is not stated in words by the source. The exact form of at least one protein or probe is not confirmed. For some of these results: Weaker means in comparison with the reference protein, sequence or condition of that experiment.

On to “AUGACCAUCCUUUUCCUUACUAUGGUUAUUUCAUACUUCGGUUGCAUGAAGGCGGCGCCCAUGAAAGAAGUAAACGUCCACGGACAAGGCAACUUGGCCUACCCAGGUGUGCGGACCCAUGGGACUCUGGAGAGCGUGAAUGGGCCCAGGGCAGGUUCGAGAGGUCUGACGACGACAUCACUGGCUGACACUUUUGAGCACGUCAUCGAAGAGCUGCUGGAUGAGGACCAGAAGGUUCGGCCCAACGAAGAAAACCAUAAGGACGCGGACUUGUACACUUCCCGGGUGAUGCUCAGCAGUCAAGUGCCUUUGGAGCCUCCUCUACUCUUUCUGCUGGAGGAAUACAAAAAUUACCUGGAUGCCGCAAACAUGUCUAUGAGGGUUCGGCGCCACUCCGACCCUGCCCGCCGUGGGGAGCUGAGCGUGUGUGACAGUAUUAGCGAGUGGGUCACAGCGGCAGAUAAAAAGACUGCAGUGGACAUGUCUGGCGGGACGGUCACAGUCCUAGAGAAAGUCCCGGUAUCCAAAGGCCAACUGAAGCAGUAUUUCUACGAGACCAAGUGUAAUCCCAUGGGUUACACCAAGGAAGGCUGCAGGGGCAUAGACAAAAGGCACUGGAACUCGCAAUGCCGAACUACCCAAUCGUAUGUUCGGGCCCUUACUAUGGAUAGCAAAAAGAGAAUUGGCUGGCGAUUCAUAAGGAUAGACACUUCCUGUGUAUGUACACUGACCAUUAAAAGGGGAAGAUAG [Bdnf CDS probe]”, for which the binding result is reported as “no binding” in data set [1] (does not compete) and “binds more weakly” in data set [2] (little or no shift).

Consider “CCUGCGGAGGCUAAGUGGAGCUGACAUACUAUUUCCUGGCAGUGCAGGAGGAAUUUCUGAGUGGCCAUCCUAAGGUCUAGGAUGGAGGUGGGGAAUGGUACUUGAGACAUUCCUAAAGGAAGGCUCGGAAGCACCCUUCAGAGCAGGCUCUGGAAUGAUGUGUCAAGUUGCUUAGGCCUUCUGCUUUAAGUGCCUACAUUACCUAACAGUGCUCAAGAGGUUCUCGAUUGGAGAACCACACUCAAAUCCAUUUAUAGCCUCCAUCCCAUUUCUAAAUAAUUGUGUAUAAAGUUGGAUUAACCUGGAGCAACUUUGGAUCCAAAUAUGGCACAGCAAUAAUGAUAUUAAUGCAGCAUGAUGGGAAAUGUUUGCUGUGAAGAGAAUUGAUUUGCUUUGAGCUUAGACUUCAGGAAGCCUAGGUUUUUUAUUUUUUUAUUUUUGAGACAUUUUGGUAAAAGGAAAAAAAGAAAACAAACAAACAAACAAACAAAACCAGAAAAAGCAUCAAAACUCAGGCAGAAUGAGCAAUGUCUGAAAGGGCUAGAAAAACAAGACAUAGCAAGGUGCUUUCACUGUGAAAGAGACAAGAACACAGGAGGAAAUAUUGCUUCAGUGAAGAGCACAGACGGCUCCUGCCAAUUUAUUACAAGAGUCCCGUCUGUACUUUACCCUUUGGGGUUAGAAGUCAAGUUGGAAGCCUGAAUGAAUGGACCCAAUGAGAACUAGUGUUAAGCCCAUUUCCCUAGUCAGGUUUUUUUCAAGCGUGAAUGUGUUAGUGGUUACUCUCCUGGGUUCCUGAGCAUCAGAAAAAAAAAAAAAAAGAGGCAAACAAUCGCUUCAUCUUAGGAGUG [Bdnf 3'UTR B2]”, for which the binding result in data set [1] (competes) is “binds”; in data set [2] (smaller shift than B1, B3), “binds”.

As for “CUCUUUCAGAAAACAGAUUAAAAAAACAAAAAACAAAAAAAAAAAAACAAAAAACAAAAACAAAAAUUGGAACCAAAACAUUCCGUUUACAUUUUAGACACUAAGUAUCUUCGUUCUUGUUAGUACUCUGUUUUACUGCUUUCGACUUCUGAUAGCGUUGGAAUUAAAACAAUGUCAAGGUGCUGUUGUCAUUGCUUUACUGGCGUAAGGGACGGGGAAUGGGAGGGGUAGAUUUCUGUUUGUUUUGUGUUUUAUUUUGUUUGUUUGUUUGUUUUGUUUUUUAGUUCCACCCGGAGUAGGGAUGGAGAAAAUUUCUUCACUAUCCAUUCUGGUUGAUAAAGCGUUACAUUUGUAUGUUGUAAAGAUGUUUGCAAAAUCCAAUCAGAUGACUGGAAAACAAAUAAAAAUUAAGGCAACUGAAUAAAAUGCUCACACUCCACUGCCCAUGAUGUAUCUCCCUGGUCCCCCUCAGCUCACUCUUCUGGCAUGGGUCAGGGAAAAUUGCUUUUAUUGGAAAGACCAGCAUUUGUUCAAAGCAUACUCUUUCCCUCCCUCCUCCCAUUUUGGUCCCUUCUUUUUGUUUUGUUUUAAGAAAGAAAAUUAAGUUGCGCGCUUUAAAAUAUUUUACUACUGCUACAAACAGAUGAACAAUGUGUGUCAUUUUAUGACACUCAUGGAAAACAGUGAUUUUUUUUUACCCUAAAGAAAAACAAAUAAAAAUAACCCAAAAUAUUCUUUUUUUAAAAGGCAUAAAUAUUGGGUAAAUUGUAAUAUGGCCUAACAGUGUUUGCAGAUAAAAGUUAUUGUAUACACCCAGAUACUUAGAUAAGAGCAGGGAUCCACACUGCCAUUGAAAUAGGACUGAAUGGCCCU [Bdnf 3'UTR B1]”, the binding result in data set [1] (competes) and in data set [2] (among greatest shifts) was “binds” throughout.

For the sequence “GAAAGGAAACAGAAGUGGACGUCCGCUGUGACUCAGGGAGUGAAGAUACCAUCAGCAAAUAGUUUCUUUUUUGUUCAUUCGUUCCUUUCGAGUUAGCCUGUCUUUUGGAAUACCACUGAAUAUGCUGUUUUUGAAAGACUUCAUGUAGCAUAGAUUGUUUUGUGCCGUUUACCAAAUUAACCUUUGUCAUCGUUUUUUAACCUAUUCAGGAAUGCUUGGAAUAUCUGCUCUAUGUUAACUUUUUGCAGCUUCAUUCUGAGAGACAUUAGUCAAACAAACAAAAGGAUCCCCAUCACAAUCUUACAGUACUGCAAGGGCCAGGUCUGUUAAUCGGCUUCACAGGAGACAUCAGCAAUUGUGUGGUCAGUGGCUGGCUCUCUUACCCACUAAGAUACAUCAUAGCUACAUGUUGGUGGUUUAUGUUGACCUGAGAUUUAUUUGUUAAAAUCUCUUCUUCGUUUCUGUUCGUUCUGGUUCUGUUCUGUUCUGUUCUGUUCUGUUUUGGUUUUAAAGUCUUGCUGUGGUCUCUUGUUGGCAGAAAUGUUUUAUGCAUGGCAGCAGGCCUGUUGCUUUUUUAUAGUGAUUCCCAUUGAAACUGUAAGUAAAUGUCUGUGGCCUUGUUCUCUCUAUGGUAAAGAUAUUAUUCACCAUGUAAAACAAGAAAAAAUAUUUAUUGUAUUUUAGUAUAUUUAUAUAAUUAUGUUAUUGAAAAAAUUGGCAUUAAAACUUAACCACAUCAGAAGCCUAUUGUAAAUACAGGUUCUAUUUAAGUGUACCAAUUAACAUAUAAUAUAUGUUUUAAAUAUAGAAUUUUUAAUGUUUUUAAAUAUAUUUUCAAA [Bdnf 3'UTR B3]”, the binding result in data set [1] (competes) and in data set [2] (among greatest shifts) was “binds” in each case.

As to “UGGAUUUAUGUUGUAUAGAUUAUAUUGAGACAAAAUUAUCUAUUUGUAUAUAUACAUAACAGGGUAAAUUAUUCAGUUAAGAAAAAAUAAUUUUAUGAACUGCAUGUAUAAAUGAAGUUUAUACAGUACAGUGGUUCUACAAUCUAUUUAUUGGACAUAUCCAUGACCUGAAAGGAAACAGUCAUUUGCGCACAACUUUAAAAGUCUGCAUUACAUUCCUCGAUAAUGUUGUGGUUUGUUGCCGUUGCCAAGAAUUGAAAACAAAAAGUUUAAAAAAAAUAAUAAUAAAUUGCAUGCUGCUUUAAUUGUGAAUUGAUAAUAAACUGUCCCUCUUUCAGAAAACAGAUU [Bdnf 3'UTR A (short)]”, the values for the binding result in data set [1] (does not compete) and in data set [2] (little or no shift) were “no binding” and “binds more weakly”, respectively.

Values taken from publication PMC4332865.
